From paper PMC4549865, “The Escherichia coli NarL receiver domain regulates transcription through promoter specific functions” (BMC Microbiology, 2015)
Results are given in words; binding and its absence hold for the method and conditions named.

By UniProt entry, the sequences of proteins in these tests, tags left out. Where a name states a change or a piece, a line headed by the entry shows the natural chain unless it says otherwise.
UniProt P0AF28: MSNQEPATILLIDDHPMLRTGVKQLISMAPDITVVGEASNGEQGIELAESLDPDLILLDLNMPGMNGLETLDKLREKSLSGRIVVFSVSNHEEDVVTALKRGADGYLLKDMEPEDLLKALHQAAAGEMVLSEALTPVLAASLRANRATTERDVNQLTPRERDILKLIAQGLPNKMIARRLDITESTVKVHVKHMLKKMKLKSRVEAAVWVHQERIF

Legend:
Experiment in all cases: AUC; sedimentation equilibrium, 4 °C, Beckman Optima XL-A, absorption optics; samples at 60 μM and 160 μM in 25 mM Tris pH 7.5-8.5, 500 mM NaCl (other salts in some runs); 11,000-22,000 rpm; single-species fits and global fits of monomer-dimer and other models; monomer to dimer; both purified
[1] = target: Full-length unphosphorylated NarL (Escherichia coli) (UniProt P0AF28)
[2] = target: NarL C-terminal domain construct NarL^(C (126–216)), with the entire linker region (Escherichia coli) (UniProt P0AF28)
[3] = target: NarL C-terminal domain construct NarL^(C (147–216)) (Escherichia coli) (UniProt P0AF28)

With “Full-length unphosphorylated NarL (from UniProt P0AF28 1-216)” the binding [1] was “no binding (tested: 160 μM)”.

For “NarL C-terminal domain construct NarL^(C (126–216)), with the entire linker region (from UniProt P0AF28 126-216) (domain or fragment)”, the binding [2] was “no binding (tested: 160 μM)”.

With “NarL C-terminal domain construct NarL^(C (147–216)) (from UniProt P0AF28 147-216) (domain or fragment)” the binding [3] was “no binding (tested: 160 μM)”.
